This test deals with T1, Rsph3b (mouse) (UniProt Q9DA80).
T1 sequence: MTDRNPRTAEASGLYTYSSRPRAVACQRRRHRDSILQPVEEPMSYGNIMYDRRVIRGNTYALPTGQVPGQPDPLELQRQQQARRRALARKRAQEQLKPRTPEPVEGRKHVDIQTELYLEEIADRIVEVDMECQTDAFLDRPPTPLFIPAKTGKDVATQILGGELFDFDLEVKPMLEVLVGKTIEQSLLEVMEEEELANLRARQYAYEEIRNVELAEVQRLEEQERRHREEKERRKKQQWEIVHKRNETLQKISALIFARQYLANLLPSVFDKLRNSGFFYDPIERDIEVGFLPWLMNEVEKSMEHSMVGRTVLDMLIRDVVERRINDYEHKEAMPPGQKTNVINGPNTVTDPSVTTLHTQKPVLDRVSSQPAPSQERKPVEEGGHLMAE
Description: cryo-EM structure; RS head-neck complex co-expressed in HEK293F, purified by Strep-Tactin then anti-FLAG beads, cross-linked by GraFix (0-0.1% glutaraldehyde, 10-40% glycerol, 4 °C); monomer map 3.28 Å, dimer map 3.57 Å; both purified.

Results are given in words; binding and its absence hold for the method and conditions named. Binding calls can cover weak binding; strength is not graded here.

On to HA-tagged Rsph2 (from UniProt F6QU18), for which the binding entry is reported as “binds”.

Values taken from article PMC10774353.
